PubChem BioAssay AID1224828, NIAID, 2016

Assay: 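Knock-downs that increase or decrease LPS-induced p65 nuclear translocation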 (primary screen)
Cell system: mouse RAW264.7 G9 macrophage reporter cells (GFP-p65, Tnf promoter-mCherry)
Knock-down reagent: siRNA pool against mouse genes, 100 nM
Timing: 2 days siRNA transfection, then 40 min LPS before fixation
Challenge: LPS (Salmonella minnesota R595) at 10 ng/ml
Detection: 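Imaged p65 nuclear translocation ratio, normalised to the plate median, converted to robust z-scores and averaged across two replicates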
Reading the numbers: p65 translocation robust z-score: higher = more nuclear NF-kappaB p65 after LPS than the plate median; nuclear/cytoplasmic p65 ratio: higher = more nuclear NF-kappaB p65
Hit rule: 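Active if robust z is above 3.3 (negative regulators) or below -1.56, the Tlr4 control median (positive regulators); activity score 50 or more; control wells not called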
Calls: active = hit (p65 shift raised or lowered); inactive = no clear change
The deposit covers about 17,000 reagents; this is a part drawn at random. 762 of them (4.5%) count as active. 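Active calls include both raised and lowered p65 entry, mostly lowered; wells with fewer than 50 cells lack a z-score.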 The raw values are shown without normalisation. No sequences are given here.

Gene	p65 translocation robust z-score	nuclear/cytoplasmic p65 ratio, rep 1	nuclear/cytoplasmic p65 ratio, rep 2	low cell count flag	Outcome
Or11a4	2.05	1.68	1.51	enough cells to score	inactive
Adad1	0.27	1.49	1.15	enough cells to score	inactive
Vil1	-0.95	1.4	1.35	enough cells to score	inactive
C4bp	1.01	1.56	1.68	enough cells to score	inactive
Slc7a11	0.93	1.49	1.33	enough cells to score	inactive
Zfp93	1.38	1.6	1.33	enough cells to score	inactive
Prlhr	0.56	1.62	1.63	enough cells to score	inactive
Rdh19	0.06	1.34	1.23	enough cells to score	inactive
Camkv	0.22	1.65	1.47	enough cells to score	inactive

2 neighbouring entries already listed:
Gene	p65 translocation robust z-score	nuclear/cytoplasmic p65 ratio, rep 1	nuclear/cytoplasmic p65 ratio, rep 2	low cell count flag	Outcome
Rdh19	0.06	1.34	1.23	enough cells to score	inactive
Camkv	0.22	1.65	1.47	enough cells to score	inactive

Continued.
Gene	p65 translocation robust z-score	nuclear/cytoplasmic p65 ratio, rep 1	nuclear/cytoplasmic p65 ratio, rep 2	low cell count flag	Outcome
Frs3	0.41	1.48	1.44	enough cells to score	inactive
Alyref	-1.49	1.17	1.03	enough cells to score	inactive
Rsrp1	-2.59	1.06	1.3	enough cells to score	active
Pcdhb3	-0.09	1.5	1.34	enough cells to score	inactive
Clasp2	0.5	1.47	1.44	enough cells to score	inactive
Nid1	0.43	1.54	1.44	enough cells to score	inactive
Ecel1	-0.07	1.52	1.31	enough cells to score	inactive
Rtn2		1.37	1.01	fewer than 50 cells per well; well left out of scoring	inactive
Radil	-1.3	1.35	1.4	enough cells to score	inactive
Or6c76		1.98	1.25	fewer than 50 cells per well; well left out of scoring	inactive
Kbtbd3	0.51	1.62	1.63	enough cells to score	inactive
Hoxc9	0.86	1.56	1.48	enough cells to score	inactive
Bcor	1.06	1.66	1.58	enough cells to score	inactive
Psmb9	-0.28	1.41	1.42	enough cells to score	inactive
Cmtm2b	0.92	1.71	1.96	enough cells to score	inactive
